Article PMC4671015
No constants are given. Whether binding was seen depends on the method and setting. Binding seen in cells or lysates may run through a third protein. Some entries that bind do so weakly or less than the wild type.

By UniProt entry, the sequences of proteins in these tests, tags left out.
UniProt Q9WV60: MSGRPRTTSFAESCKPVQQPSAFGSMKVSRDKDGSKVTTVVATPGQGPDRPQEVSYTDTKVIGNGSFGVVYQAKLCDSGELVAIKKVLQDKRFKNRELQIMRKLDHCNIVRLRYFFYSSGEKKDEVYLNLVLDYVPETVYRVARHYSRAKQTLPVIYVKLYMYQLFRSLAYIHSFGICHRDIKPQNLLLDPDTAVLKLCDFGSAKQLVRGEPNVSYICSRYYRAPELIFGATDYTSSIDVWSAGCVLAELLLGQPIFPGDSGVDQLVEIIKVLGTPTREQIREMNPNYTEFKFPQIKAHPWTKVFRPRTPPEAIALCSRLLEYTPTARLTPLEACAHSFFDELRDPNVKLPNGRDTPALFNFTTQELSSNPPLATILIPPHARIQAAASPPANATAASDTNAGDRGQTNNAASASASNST

Legend:
[1] = target: Glycogen synthase kinase-3β (GSK3β) (mouse (endogenous in RAW264.7)) (UniProt Q9WV60); experiment: co-IP; endogenous proteins in RAW264.7 whole cell lysate (150 mM Tris-HCl, 500 mM NaCl, 1% Triton X-100, pH 7.6), antibody at 4 °C overnight, protein A/G Sepharose; cells treated with RANKL for various durations (IP with anti-hnRNPK) or with 10 mM LiCl for 8 hours (IP with anti-GSK3β); non-immune IgG as control; Western blot
[2] = target: Glycogen synthase kinase-3β (GSK3β) (mouse (endogenous in RAW264.7)) (UniProt Q9WV60); experiment: co-IP; data not shown; extracts of RAW264.7 cells before RANKL or LiCl treatment; precipitated with anti-hnRNPK or with anti-GSK3β antibody, Western blot of the counterpart

Substance: heterogeneous nuclear ribonucleoprotein K (hnRNPK) (from UniProt P61979 1-463)
- binding [1]: binds
- binding [2]: binds weakly
